Values of other authors in patent US20210315829A1, “Invention Relating to Nanoparticles Containing Taxanes for Administration by Inhalation” (Justus-Liebig-Universität Gießen, priority 2017, published 2021).

solubility in water: only sparingly soluble
SMILES: CC(=O)O[C@H]1C(=O)[C@@]2(C)[C@H]([C@H](OC(=O)c3ccccc3)[C@]3(O)C[C@H](OC(=O)[C@H](O)[C@@H](NC(=O)c4ccccc4)c4ccccc4)C(C)=C1C3(C)C)[C@]1(OC(C)=O)CO[C@@H]1C[C@@H]2O [paclitaxel]
